PubChem BioAssay AID504764, Drosophila RNAi Screening Center | 2011
In all, the deposit lists about 22,000 reagents; shown is an unselected part of those with a known target gene and a result. In the full data, 403 (1.9%) are marked active. 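Unnormalised raw counts per well; ratio z-scores behind the hit calls and whether each hit raises or lowers signal are not deposited.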 Reagent sequences are not shown. Not given: the amount of reagent.

Purpose: 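Genes whose knock-down alters Notch-dependent transcription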 (primary screen)
Cell system: Drosophila Kc167 cells
Knock-down reagent: long dsRNA against Drosophila genes
Duration: about 5 days (4 days dsRNA, then 24 h after transfection)
Conditions: transfection of constitutively active membrane-tethered Notch lacking the extracellular domain, read 24 h later
Read-out: 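Light from a Notch-responsive E(spl)m3 luciferase reporter under active Notch, with control-promoter and no-Notch reporter wells to normalise; raw counts from paired wells a and b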
Scale: induced reporter light, run 1, well a and induced reporter light, run 1, well b: higher = more light from the Notch target reporter with active Notch; control promoter light, run 1, well a and control promoter light, run 1, well b: higher = more light from the viral control promoter (cell number, transfection, viability); uninduced reporter light, run 1, well a: higher = more light from the Notch target reporter without active Notch
Call rule: 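Wells with low control signal or poorly matching duplicates excluded; duplicates averaged; per source plate, z beyond ±2 for induced/control log2 ratio or beyond ±1.8 for induced/uninduced marks a hit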
Calls: active = modifier hit (raised or lowered Notch signal); inactive = not a hit

| target gene | amplicon | induced reporter light, run 1, well a | induced reporter light, run 1, well b | control promoter light, run 1, well a | control promoter light, run 1, well b | uninduced reporter light, run 1, well a | activity call |
| --- | --- | --- | --- | --- | --- | --- | --- |
| CG42327 | DRSC14936 | 61080 | 62255 | 45310 | 41465 | 3250 | inactive |
| CG42327 | DRSC14937 | 1.11e5 | 1.03e5 | 1.49e5 | 1.38e5 | 7940 | inactive |
| Hr83 | DRSC12521 | 64015 | 58060 | 53190 | 46205 | 4855 | inactive |
| Dip-B | DRSC16466 | 1.11e5 | 1.31e5 | 91755 | 86190 | 10092 | inactive |
| Dgat2 | DRSC06803 | 1.74e5 | 1.79e5 | 1.64e5 | 1.46e5 | 14950 | inactive |
| Tre1 | DRSC18726 | 1.22e5 | 1.16e5 | 2.27e5 | 1.88e5 | 9775 | inactive |
| Mon1 | DRSC00336 | 1.71e5 | 1.54e5 | 1.31e5 | 1.17e5 | 7710 | inactive |
| CG4658 | DRSC02768 | 1.71e5 | 1.69e5 | 92255 | 1.40e5 | 21335 | inactive |
| CtsB | DRSC19361 | 1.55e5 | 1.60e5 | 1.77e5 | 2.22e5 | 12790 | inactive |
| Torsin | DRSC18570 | 2.44e5 | 1.94e5 | 3.63e5 | 3.90e5 | 13505 | inactive |
| CG3339 | DRSC13821 | 2.26e5 | 2.03e5 | 2.26e5 | 2.40e5 | 17670 | inactive |
| CG3339 | DRSC15479 | 1.18e5 | 1.47e5 | 2.10e5 | 1.99e5 | 12085 | inactive |
| Frmd5 | DRSC02802 | 98475 | 1.28e5 | 48370 | 85010 | 14580 | inactive |
| mbl | DRSC05657 | 1.16e5 | 1.17e5 | 1.50e5 | 1.42e5 | 9140 | inactive |
| mbl | DRSC06449 | 30825 | 26365 | 44520 | 47930 | 4578 | inactive |
| mbl | DRSC07651 | 95395 | 62170 | 76360 | 98855 | 10370 | inactive |
| TwdlT | DRSC16677 | 1.29e5 | 1.46e5 | 2.68e5 | 1.86e5 | 12435 | inactive |
| TwdlT | DRSC21540 | – | – | – | – | – | inactive |
| ltl | DRSC10206 | 2.07e5 | 2.21e5 | 2.66e5 | 2.23e5 | 10450 | inactive |
| ltl | DRSC10870 | 2.48e5 | 1.90e5 | 2.27e5 | 1.91e5 | 9210 | inactive |
| atk | DRSC11418 | 2.09e5 | 2.42e5 | 2.71e5 | 2.67e5 | 16370 | inactive |
| atk | DRSC11769 | 1.65e5 | 1.34e5 | 1.18e5 | 1.11e5 | 7430 | inactive |
| Fpgs2 | DRSC00600 | 1.73e5 | 1.47e5 | 2.61e5 | 1.82e5 | 11832 | inactive |
| alka | DRSC06136 | 1.68e5 | 1.32e5 | 1.96e5 | 1.88e5 | 12470 | inactive |
| CG14204 | DRSC19559 | 1.15e5 | 1.04e5 | 1.29e5 | 1.18e5 | 12705 | inactive |
| CanA1 | DRSC16600 | 1.32e5 | 1.29e5 | 1.71e5 | 2.07e5 | 12810 | inactive |
| pigeon | DRSC03565 | 2.44e5 | 1.99e5 | 2.04e5 | 2.12e5 | 20750 | inactive |
| CG6685 | DRSC10695 | 1.18e5 | 75700 | 94810 | 1.06e5 | 3705 | inactive |
| Eno | DRSC00750 | 79495 | 72065 | 73635 | 51410 | 6480 | inactive |
| TTLL15 | DRSC15543 | 1.18e5 | 99300 | 1.52e5 | 93685 | 8165 | inactive |
| ara | DRSC11322 | 11605 | 15192 | 19680 | 19730 | 1455 | inactive |
| CR30029 | DRSC06724 | 1.24e5 | 1.14e5 | 1.66e5 | 1.32e5 | 12240 | inactive |
| Ir56a | DRSC05776 | 1.23e5 | 1.42e5 | 1.91e5 | 1.62e5 | 10200 | inactive |
| Krn | DRSC11202 | 1.57e5 | 1.65e5 | 2.04e5 | 1.77e5 | 8255 | inactive |

A stretch taken from the entries so far, for reference:
| target gene | amplicon | induced reporter light, run 1, well a | induced reporter light, run 1, well b | control promoter light, run 1, well a | control promoter light, run 1, well b | uninduced reporter light, run 1, well a | activity call |
| --- | --- | --- | --- | --- | --- | --- | --- |
| ltl | DRSC10206 | 2.07e5 | 2.21e5 | 2.66e5 | 2.23e5 | 10450 | inactive |
| ltl | DRSC10870 | 2.48e5 | 1.90e5 | 2.27e5 | 1.91e5 | 9210 | inactive |
| atk | DRSC11418 | 2.09e5 | 2.42e5 | 2.71e5 | 2.67e5 | 16370 | inactive |
